Square brackets hold non-standard residues; d marks the D form. * marks the point of attachment. Mts = Cc1cc(C)c(S(=O)(=O)*)c(C)c1; Met(O) = CS(=O)CC[C@H](N)C(=O)O; OPac = O=C(CO*)c1ccccc1; Cbz = O=C(OCc1ccccc1)*; Boc = CC(C)(C)OC(=O)*; OcHex = C1CCC(O*)CC1; OBn = c1ccc(CO*)cc1; Bn = c1ccc(C*)cc1
Assay: general procedure: solution-phase peptide synthesis; WSC/HOBt; SBCF mixed anhydride with NMM; ONp active esters; DCC or WSC with HOSu
[1] = late stage modification step, run 1

Substance: Boc-AR(Mts)K(Cbz)L-OPac
- step yield (coupling step, run 1): 89.0%

Substance: Boc-FT(Bn)NS(Bn)Y(Bn)-OBn
- step yield (coupling step, run 1): 92.0%
- step yield (coupling step, run 2): 81.6%

Substance: Boc-IFT(Bn)NS(Bn)Y(Bn)-OBn
- step yield (coupling step): 92%

Substance: Boc-IFTNSY-OH
- step yield (late stage modification step): 80.7%

Substance: Boc-Ile-Phe-Thr-Asn-Ser-Tyr-Arg(Mts)-Lys(Z)-Val-Leu-Gly-Gln-Leu-Ser(Bzl)-Ala-Arg(Mts)-Lys(Z)-Leu-Leu-Gln-Asp(OBzl)-Ile-Met(O)-Ser(Bzl)-Arg(Mts) NH2
- step yield (coupling step): 83.8%

Substance: Boc-K(Cbz)VLG-OPac
- step yield (coupling step, run 1): 80.1%

Substance: Boc-LS(Bn)AR(Mts)K(Cbz)L-OPac
- step yield (coupling step): 85.0%

Substance: Boc-QLS(Bn)AR(Mts)K(Cbz)LLQD(OBn)I[Met(O)]S(Bn)R(Mts)-NH2
- step yield (coupling step, run 1): 81.6%
- step yield (coupling step, run 2): 77%

Substance: Boc-R(Mts)K(Cbz)VLGQLS(Bn)AR(Mts)K(Cbz)LLQD(OBn)I[Met(O)]S(Bn)R(Mts)-NH2
- step yield (coupling step, run 1): 100%

Substance: Boc-T(Bn)NS(Bn)Y(Bn)-OBn
- step yield (coupling step, run 1): 82.2%

Substance: Boc-Tyr(Cl2 -Bzl)-Ala-Asp(OBzl)-Ala-OH
- step yield (late stage modification step): 81.3%

Substance: Boc-Tyr-Ala-Asp(OcHex)-Ala-Ile-Phe-Thr-Asn-Ser-Tyr-Arg(Mts)-Lys(Z)-Val-Leu-Gly-Gln-Leu-Ser(Bzl)-Ala- Arg(Mts)-Lys(Z)-Leu-Leu-Gln-Asp(OBzl)-Ile-Met(O)-Ser(Bzl)-Arg(Mts)-NH2
- step yield (coupling step, run 1): 100%

Substance: Boc-Y(Bn)AD(OcHex)AI-OBn
- step yield (coupling step, run 1): 100%

Substance: Boc-YAD(OcHex)AI-OH
- step yield (late stage modification step): 87.3%

Substance: Boc-YAD(OcHex)AIFT(Bn)NS(Bn)Y(Bn)-OBn
- step yield (coupling step, run 1): 53.5%

Substance: Boc-YAD(OcHex)AIFTNSY-OH
- step yield (late stage modification step): 93.4%

Substance: H-FT(Bn)NS(Bn)Y(Bn)-OBn
- step yield [1]: 99.95%

Substance: H-LQD(OBn)I[Met(O)]S(Bn)R(Mts)-NH2
- step yield [1]: 99.2%

Substance: PMZ-Arg(Mts)-Lys(Z)-Val-Leu-Gly-OH
- step yield [1]: 82.4%

— patent publication US4774319 (dated 1988)
